{"source": "patent US20180271960A1", "about": "“METHOD TO TREAT CANCER USING ARGININE DELPETOR AND ORNITHINE DECARBOXYLASE (ODC) INHIBITOR” (Bio-Cancer Treatment International Ltd., priority 2015, published 2018)", "molecules": {"B1": {"name": "PEG-BCT-100: pegylated recombinant human arginase I (SEQ ID NO.1, or SEQ ID NO.3 with six histidines), about 6-12 PEG molecules per arginase (protein, UniProt P05089 1-322, looked up)", "Arginase-1": "MSAKSRTIGIIGAPFSKGQPRGGVEEGPTVLRKAGLLEKLKEQECDVKDYGDLPFADIPNDSPFQIVKNPRSVGKASEQLAGKVAEVKKNGRISLVLGGDHSLAIGSISGHARVHPDLGVIWVDAHTDINTPLTTTSGNLHGQPVSFLLKELKGKIPDVPGFSWVTPCISAKDIVYIGLRDVDPGEHYILKTLGIKYFSMTEVDRLGIGKVMEETLSYLLGRKKRPIHLSFDVDGLDPSFTPATGTPVVGGLTYREGLYITEEIYKTGLLSGLDIMEVNPSLGKTPEEVTRTVNTAVAITLACFGLAREGNHKPIDYLNPPK", "modifications": "PEG, about 6-12 per arginase; optional His6 tag"}}, "test_system": "lung adenocarcinoma cell lines (H358, H1650, H1975, and HCC4006)", "test": "Internalization of PEG-BCT-100 by immunocytochemistry using anti-PEG-antibodies", "format": "cell-based", "data": [{"molecule": "B1", "values": [{"measurement": "internalization (penetration into cells)", "setting": "H1975, H1650, and HCC4006 cells, at IC50 level", "result": "able to penetrate"}, {"measurement": "internalization (penetration into cells)", "setting": "all examined lung adenocarcinoma cells, at 0.1 μg/μl", "result": "able to penetrate into all examined lung adenocarcinoma cells"}, {"measurement": "internalization (cytosolic staining by anti-PEG antibody)", "setting": "examined cell lines, IC50 concentrations and 0.1 μg/μl", "result": "able to penetrate the cells"}]}]}
